Experimental data published in patent publication CN115433280A.
Results are given in words; binding and its absence hold for the method and conditions named. Some entries that bind do so weakly or less than the wild type.

Sequences of proteins named here, by UniProt entry; tags and fusion partners are left off. Residues count along the entry.
UniProt P20273, residues 20-847: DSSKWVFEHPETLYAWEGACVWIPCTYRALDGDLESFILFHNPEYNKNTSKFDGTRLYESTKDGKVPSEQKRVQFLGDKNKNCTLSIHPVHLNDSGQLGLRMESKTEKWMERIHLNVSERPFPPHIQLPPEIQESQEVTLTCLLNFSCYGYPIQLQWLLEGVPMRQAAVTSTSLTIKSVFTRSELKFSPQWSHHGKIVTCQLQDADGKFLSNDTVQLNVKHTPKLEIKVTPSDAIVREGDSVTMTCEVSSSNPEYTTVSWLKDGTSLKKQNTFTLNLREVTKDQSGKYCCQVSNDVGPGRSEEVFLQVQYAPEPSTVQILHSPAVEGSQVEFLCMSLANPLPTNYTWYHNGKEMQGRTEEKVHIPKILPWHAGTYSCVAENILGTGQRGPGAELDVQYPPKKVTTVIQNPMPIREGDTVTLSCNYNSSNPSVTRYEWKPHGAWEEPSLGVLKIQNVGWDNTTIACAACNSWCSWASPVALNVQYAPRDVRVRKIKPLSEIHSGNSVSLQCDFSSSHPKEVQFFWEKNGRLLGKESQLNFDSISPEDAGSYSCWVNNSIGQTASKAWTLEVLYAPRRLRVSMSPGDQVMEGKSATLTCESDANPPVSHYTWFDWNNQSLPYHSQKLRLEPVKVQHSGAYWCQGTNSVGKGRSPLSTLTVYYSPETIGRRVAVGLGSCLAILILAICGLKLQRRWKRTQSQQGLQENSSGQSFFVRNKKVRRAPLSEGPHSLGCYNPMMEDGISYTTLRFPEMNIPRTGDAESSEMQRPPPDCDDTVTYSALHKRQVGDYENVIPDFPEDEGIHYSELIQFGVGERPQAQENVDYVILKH

Target: CD22全长蛋白 (293细胞转染) (UniProt P20273)
Assay: flow cytometry on 293 cells transfected with full-length CD22

B1: 命名为8B5的兔重组单克隆抗体 (antibody, V domains shown)
VH: QEQLKESGGGLVTPGGSLTLTCTVSGIDLSSYAMGWVRQAPGKGLEYIGIVTYAGSAYYASWARGRFTISKTSTTVDLKITSPTTEDTATYFCARGVDNFYTLPDAFDPWGPGTLVTVS
VL: AYDMTQTPASVSAAVGGTVTINCQASQSISRFLSWYQQKPGQRPKLLIYRASTLASGVSSRFEGSGSGTQFTLTISGVECADAATYYCQQGDTYINVDNPFGGGTEVVVK
**Q.** For B1, which binding is on record?
**A.** binds

B2: 命名为9A3的兔重组单克隆抗体 (antibody, V domains shown)
V domain 1: QSVEESGGRLVTPGTPLTLTCTVSGIDLSSYWMNWVRQAPGKGLEWIGIIWSDDNTYYANWAKGRFTISKTSSTTVDLTITSPTTEDTATYFCARGYVGDIWGPGTLITVS
V domain 2: ALVMTQTPSSVDVAVGGTVTIRCQASQNIYSGLAWYQQKPGQPPKLLIYGASNLASGVSSRFKGSGSGTQFTLTISGVECADAATYYCQQTYTSDNVDNPFGGGTEVVVE
**Q.** For B2, which binding is on record?
**A.** binds

B3: 命名为10F9的兔重组单克隆抗体 (antibody, V domains shown)
VH: QSVEESGGRLVTPGTPLTLTCTVSGFSLNTDAMIWVRQAPGKGLEYIGIIGSSGSAFFASWAKGRFTISKTSTTVDLTIISPTTEDTATYFCARFTGYGGYGRGGMDPWGPGTLVTVSS
VL: AQVLTQTPSSVSAAVGGTVTINCQSSESVHNNNWLSWYQQKPGQPPKLLIYKASTLASGVPSRFSGSGSGTQFTLTISGVQCDDAATYYCQATYNSGGWYVAFGGGTEVVVK
**Q.** For B3, which binding is on record?
**A.** binds
